# According to PMC12160931:
# By UniProt entry, the sequences of proteins in these tests, tags left out. Residues count along the entry.
# UniProt P17655, residues 20-700: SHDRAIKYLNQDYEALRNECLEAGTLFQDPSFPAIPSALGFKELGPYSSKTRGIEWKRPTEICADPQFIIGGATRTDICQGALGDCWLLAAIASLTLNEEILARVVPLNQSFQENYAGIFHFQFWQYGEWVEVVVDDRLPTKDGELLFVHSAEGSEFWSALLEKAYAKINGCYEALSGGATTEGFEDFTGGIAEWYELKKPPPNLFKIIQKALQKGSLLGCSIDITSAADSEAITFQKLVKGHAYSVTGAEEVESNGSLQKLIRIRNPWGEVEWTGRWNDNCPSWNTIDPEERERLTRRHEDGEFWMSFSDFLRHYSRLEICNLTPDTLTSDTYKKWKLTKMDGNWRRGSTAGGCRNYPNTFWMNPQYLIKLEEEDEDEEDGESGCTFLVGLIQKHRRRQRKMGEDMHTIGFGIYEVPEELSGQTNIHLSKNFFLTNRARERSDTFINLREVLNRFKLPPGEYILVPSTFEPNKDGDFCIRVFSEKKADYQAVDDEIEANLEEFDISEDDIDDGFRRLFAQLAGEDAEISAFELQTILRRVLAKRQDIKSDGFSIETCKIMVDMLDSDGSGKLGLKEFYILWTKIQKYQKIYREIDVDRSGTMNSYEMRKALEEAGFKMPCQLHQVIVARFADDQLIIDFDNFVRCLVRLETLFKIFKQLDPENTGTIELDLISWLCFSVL
# Results are given in words; binding and its absence hold for the method and conditions named. In cells and extracts the contact can be indirect. Some binding calls cover weakened binding; strength is not graded here.
# B1: tripartite motif containing 8 (TRIM8) (protein, UniProt Q9BZR9 1-551)
# chain: MAENWKNCFEEELICPICLHVFVEPVQLPCKHNFCRGCIGEAWAKDSGLVRCPECNQAYNQKPGLEKNLKLTNIVEKFNALHVEKPPAALHCVFCRRGPPLPAQKVCLRCEAPCCQSHVQTHLQQPSTARGHLLVEADDVRAWSCPQHNAYRLYHCEAEQVAVCQYCCYYSGAHQGHSVCDVEIRRNEIRKMLMKQQDRLEEREQDIEDQLYKLESDKRLVEEKVNQLKEEVRLQYEKLHQLLDEDLRQTVEVLDKAQAKFCSENAAQALHLGERMQEAKKLLGSLQLLFDKTEDVSFMKNTKSVKILMDRTQTCTSSSLSPTKIGHLNSKLFLNEVAKKEKQLRKMLEGPFSTPVPFLQSVPLYPCGVSSSGAEKRKHSTAFPEASFLETSSGPVGGQYGAAGTASGEGQSGQPLGPCSSTQHLVALPGGAQPVHSSPVFPPSQYPNGSAAQQPMLPQYGGRKILVCSVDNCYCSSVANHGGHQPYPRSGHFPWTVPSQEYSHPLPPTPSVPQSLPSLAVRDWLDASQQPGHQDFYRVYGQPSTKHYVTS
# Target: calpain-2 (CAPN2) (human (MS data aligned to the UniProt human database; cells not named)) (UniProt P17655)
# Assay: co-IP; bidirectional Co-IP of CAPN2 and TRIM8 from cell lysate, SureBeads magnetic beads, Western blotting; cells not given
binder,measurement,value
B1,binding,binds
